{"source": "PubChem BioAssay AID743121 (NCATS, 2013)", "purpose": "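Partners whose loss is lethal together with topoisomerase I blockade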 (primary screen)", "cell system": "MDA-MB-231 cells, a human breast cancer line", "reagents": "single siRNA against human genes, 20 nM siRNA (0.8 pmol per well)", "time to read-out": "120 h (drug added 48 h after transfection, read 72 h later)", "challenge": "camptothecin 20 nM (about EC30) for 72 h; vehicle 0.1% DMSO in parallel plates", "measured": "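Cell viability by ATP luminescence (CellTiter-Glo) as % of non-targeting siRNA wells, and the log2 ratio of viability without drug over viability with camptothecin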", "scale": "log2 vehicle/camptothecin viability: higher = stronger sensitisation to camptothecin", "call rule": "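Active genes have an RSA gene-level p-value below 0.001, computed from the ratios of their separate siRNAs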", "note": "Shown is a random part of about 26,000 reagents. Of all reagents, 167 (0.63%) were called active. 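Calls are per gene from RSA p-values that are not deposited; an individual active-marked siRNA can sensitise only weakly.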 Entries without a mark were called inactive. Reagents against one gene are numbered here. Not all columns of the deposit are shown. No sequences are given here."}
{"Gene":"SDHB","siRNA no.":1,"log2 vehicle/camptothecin viability":-0.0765}
{"Gene":"SDHB","siRNA no.":2,"log2 vehicle/camptothecin viability":0.289}
{"Gene":"SDHB","siRNA no.":3,"log2 vehicle/camptothecin viability":-0.495}
{"Gene":"SDHB","siRNA no.":4,"log2 vehicle/camptothecin viability":-0.21}
{"Gene":"OASL","siRNA no.":1,"log2 vehicle/camptothecin viability":-0.0862}
{"Gene":"OASL","siRNA no.":2,"log2 vehicle/camptothecin viability":-0.164}
{"Gene":"OASL","siRNA no.":3,"log2 vehicle/camptothecin viability":-0.434}
{"Gene":"OASL","siRNA no.":4,"log2 vehicle/camptothecin viability":0.211}
{"Gene":"ACE","siRNA no.":1,"log2 vehicle/camptothecin viability":-0.341}
{"Gene":"ACE","siRNA no.":2,"log2 vehicle/camptothecin viability":-0.323}
{"Gene":"ACE","siRNA no.":3,"log2 vehicle/camptothecin viability":-0.133}
{"Gene":"ACE","siRNA no.":4,"log2 vehicle/camptothecin viability":-0.365}
{"Gene":"GPRC5B","siRNA no.":1,"log2 vehicle/camptothecin viability":-0.555}
{"Gene":"GPRC5B","siRNA no.":2,"log2 vehicle/camptothecin viability":0.587}
{"Gene":"GPRC5B","siRNA no.":3,"log2 vehicle/camptothecin viability":-0.256}
{"Gene":"GPRC5B","siRNA no.":4,"log2 vehicle/camptothecin viability":-0.0775}
{"Gene":"APOL2","siRNA no.":1,"log2 vehicle/camptothecin viability":-0.314}
{"Gene":"APOL2","siRNA no.":2,"log2 vehicle/camptothecin viability":-0.121}
{"Gene":"APOL2","siRNA no.":3,"log2 vehicle/camptothecin viability":0.122}
{"Gene":"APOL2","siRNA no.":4,"log2 vehicle/camptothecin viability":0.064}
{"Gene":"EEF1AKMT2","siRNA no.":1,"log2 vehicle/camptothecin viability":0.163}
{"Gene":"EEF1AKMT2","siRNA no.":2,"log2 vehicle/camptothecin viability":0.00462}
{"Gene":"EEF1AKMT2","siRNA no.":3,"log2 vehicle/camptothecin viability":-0.0604}
{"Gene":"EEF1AKMT2","siRNA no.":4,"log2 vehicle/camptothecin viability":0.526}
{"Gene":"OIT3","siRNA no.":1,"log2 vehicle/camptothecin viability":-0.117}
{"Gene":"OIT3","siRNA no.":2,"log2 vehicle/camptothecin viability":-0.49}
{"Gene":"OIT3","siRNA no.":3,"log2 vehicle/camptothecin viability":0.519}
{"Gene":"OIT3","siRNA no.":4,"log2 vehicle/camptothecin viability":-0.146}
{"Gene":"EML4","siRNA no.":1,"log2 vehicle/camptothecin viability":0.324}
{"Gene":"EML4","siRNA no.":2,"log2 vehicle/camptothecin viability":0.0309}
{"Gene":"EML4","siRNA no.":3,"log2 vehicle/camptothecin viability":1.01}
{"Gene":"EML4","siRNA no.":4,"log2 vehicle/camptothecin viability":0.474}
{"Gene":"PLPP3","siRNA no.":1,"log2 vehicle/camptothecin viability":-0.071}
{"Gene":"PLPP3","siRNA no.":2,"log2 vehicle/camptothecin viability":-0.211}
{"Gene":"PLPP3","siRNA no.":3,"log2 vehicle/camptothecin viability":-0.283}
{"Gene":"PLPP3","siRNA no.":4,"log2 vehicle/camptothecin viability":-0.254}
{"Gene":"SERPINA5","siRNA no.":1,"log2 vehicle/camptothecin viability":-0.277}
{"Gene":"SERPINA5","siRNA no.":2,"log2 vehicle/camptothecin viability":-0.38}
{"Gene":"SERPINA5","siRNA no.":3,"log2 vehicle/camptothecin viability":0.0153}
{"Gene":"SERPINA5","siRNA no.":4,"log2 vehicle/camptothecin viability":-0.289}
{"Gene":"FMO3","siRNA no.":1,"log2 vehicle/camptothecin viability":-0.213}
{"Gene":"FMO3","siRNA no.":2,"log2 vehicle/camptothecin viability":-0.403}
{"Gene":"FMO3","siRNA no.":3,"log2 vehicle/camptothecin viability":0.13}
{"Gene":"FMO3","siRNA no.":4,"log2 vehicle/camptothecin viability":0.0968}
{"Gene":"BEST1","siRNA no.":1,"log2 vehicle/camptothecin viability":-0.427}
{"Gene":"BEST1","siRNA no.":2,"log2 vehicle/camptothecin viability":-0.217}
{"Gene":"BEST1","siRNA no.":3,"log2 vehicle/camptothecin viability":-0.145}
{"Gene":"BEST1","siRNA no.":4,"log2 vehicle/camptothecin viability":0.505}

8 entries already listed, sorted by “log2 vehicle/camptothecin viability”, low to high.
{"Gene":"OIT3","siRNA no.":2,"log2 vehicle/camptothecin viability":-0.49}
{"Gene":"OIT3","siRNA no.":4,"log2 vehicle/camptothecin viability":-0.146}
{"Gene":"OIT3","siRNA no.":1,"log2 vehicle/camptothecin viability":-0.117}
{"Gene":"EML4","siRNA no.":2,"log2 vehicle/camptothecin viability":0.0309}
{"Gene":"EML4","siRNA no.":1,"log2 vehicle/camptothecin viability":0.324}
{"Gene":"OIT3","siRNA no.":3,"log2 vehicle/camptothecin viability":0.519}
{"Gene":"EEF1AKMT2","siRNA no.":4,"log2 vehicle/camptothecin viability":0.526}
{"Gene":"EML4","siRNA no.":3,"log2 vehicle/camptothecin viability":1.01}
